Literature values as cited in patent US20080104001A1, “ALGORITHM FOR ESTIMATION OF BINDING EQULIBRIA IN INCLUSION COMPLEXATION, HOST COMPOUNDS IDENTIFIED THEREBY AND COMPOSITIONS OF HOST COMPOUND AND PHARMACEUTICAL” (priority 2006, published 2008).
Like-named read-outs stand apart in the source and are kept apart here. At least one structure is not confirmed: it was looked up by name or label, or the drawing left a doubt.

Structure (SMILES) | Log K(1:1) (validation set, known binding constants) | Log K(1:1) (training set, published stability constants (Connors, 1995))
O=C1Nc2ccc(Cl)cc2C(c2ccccc2)=NC1O (centres unmarked) [Oxazepam] | 2.23 | –
CCC1(c2ccccc2)C(=O)NC(=O)NC1=O [Phenobarbital] | – | 3.31
